# Reference: patent US20240239842A1 (CHUGAI SEIYAKU KABUSHIKI KAISHA, priority 2021, published 2024)
# Assay: general procedure: Fmoc solid-phase peptide synthesis; 2-chlorotrityl resin (100-200 mesh, 1% DVB); Fmoc-MeAsp(O-Trt(2-Cl)resin)-pip or Fmoc-D-3-Abu-O-Trt(2-Cl)resin; DIC/HOBt, DIC/HOAt or HATU/DIPEA (general description); cyclisation with HATU or
# Details: whole synthesis
substance,measurement,setting,value
"(3S,9S,12S,18S,27S,30R,35S)-18-(cyclohexylmethyl)-12-[(3-ethynylphenyl)methyl]-3-isobutyl-9-[(4-methoxyphenyl)methyl]-1,6,6,7,16,19,22,25,30,32-decamethyl-27-[(1S)-1-methylpropyl]-35-(piperidine-1-carbonyl)-1,4,7,10,13,16,19,22,25,28,32-undecaz",isolated mass,,14.72 mg
same,isolated yield,"scale of the general procedure 0.0462 mmol (100 mg resin, 0.462 mmol/g)",26%
